Measurements from publication PMC4833381.
These are yes or no findings as the source states them, for the method shown. Binding seen in cells or lysates may run through a third protein.

Chains of the proteins cited; added tags and fusions are not shown. Residues count along the entry.
UniProt P06473, residues 32-906: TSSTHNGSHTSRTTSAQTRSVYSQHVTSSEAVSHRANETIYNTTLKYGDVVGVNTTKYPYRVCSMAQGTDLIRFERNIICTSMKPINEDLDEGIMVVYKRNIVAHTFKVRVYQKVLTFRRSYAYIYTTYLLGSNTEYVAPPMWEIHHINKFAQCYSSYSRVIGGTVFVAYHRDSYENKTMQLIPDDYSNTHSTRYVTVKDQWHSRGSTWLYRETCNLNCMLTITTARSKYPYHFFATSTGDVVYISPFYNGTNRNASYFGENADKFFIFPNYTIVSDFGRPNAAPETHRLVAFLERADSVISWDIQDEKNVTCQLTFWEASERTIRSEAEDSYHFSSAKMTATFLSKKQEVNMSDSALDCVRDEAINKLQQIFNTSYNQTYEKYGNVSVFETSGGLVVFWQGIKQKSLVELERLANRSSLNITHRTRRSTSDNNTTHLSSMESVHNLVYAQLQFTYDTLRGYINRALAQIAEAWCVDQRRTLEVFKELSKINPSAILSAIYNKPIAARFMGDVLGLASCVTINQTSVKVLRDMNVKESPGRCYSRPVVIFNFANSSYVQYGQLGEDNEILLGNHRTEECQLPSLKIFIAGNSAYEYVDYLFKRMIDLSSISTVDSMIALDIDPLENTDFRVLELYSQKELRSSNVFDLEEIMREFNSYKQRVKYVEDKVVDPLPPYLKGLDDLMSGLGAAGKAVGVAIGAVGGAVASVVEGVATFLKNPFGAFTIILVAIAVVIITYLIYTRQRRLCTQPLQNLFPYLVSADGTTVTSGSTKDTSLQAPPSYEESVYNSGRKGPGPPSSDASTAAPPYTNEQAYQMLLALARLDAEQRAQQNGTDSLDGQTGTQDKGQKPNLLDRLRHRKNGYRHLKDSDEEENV

Biological target: HCMV gB of HCMV BADrUL131 (infected cells and extracellular virions) (human cytomegalovirus, BADrUL131) (UniProt P06473)
Assay: co-IP

B1: HCMV glycoprotein M (gM) of HCMV BADrUL131 (extracellular virions) (protein, UniProt P16733 1-372)
chain: MAPSHVDKVNTRTWSASIVFMVLTFVNVSVHLVLSNFPHLGYPCVYYHVVDFERLNMSAYNVMHLHTPMLFLDSVQLVCYAVFMQLVFLAVTIYYLVCWIKISMRKDKGMSLNQSTRDISYMGDSLTAFLFILSMDTFQLFTLTMSFRLPSMIAFMAAVHFFCLTIFNVSMVTQYRSYKRSLFFFSRLHPKLKGTVQFRTLIVNLVEVALGFNTTVVAMALCYGFGNNFFVRTGHMVLAVFVVYAIISIIYFLLIEAVFFQYVKVQFGYHLGAFFGLCGLIYPIVQYDTFLSNEYRTGISWSFGMLFFIWAMFTTCRAVRYFRGRGSGSVKYQALATASGEEVAVLSHHDSLESRRLREEEDDDDDEDFEDA
For B1, the binding was “no binding”.
